According to US20100099601A1:
These are yes or no findings as the source states them, for the method shown. Some results given as binding are weak or reduced against the parent protein; the word gives no strength.

By UniProt entry, the sequences of proteins in these tests, tags left out. Residues count along the entry.
UniProt P08069, residues 31-1367: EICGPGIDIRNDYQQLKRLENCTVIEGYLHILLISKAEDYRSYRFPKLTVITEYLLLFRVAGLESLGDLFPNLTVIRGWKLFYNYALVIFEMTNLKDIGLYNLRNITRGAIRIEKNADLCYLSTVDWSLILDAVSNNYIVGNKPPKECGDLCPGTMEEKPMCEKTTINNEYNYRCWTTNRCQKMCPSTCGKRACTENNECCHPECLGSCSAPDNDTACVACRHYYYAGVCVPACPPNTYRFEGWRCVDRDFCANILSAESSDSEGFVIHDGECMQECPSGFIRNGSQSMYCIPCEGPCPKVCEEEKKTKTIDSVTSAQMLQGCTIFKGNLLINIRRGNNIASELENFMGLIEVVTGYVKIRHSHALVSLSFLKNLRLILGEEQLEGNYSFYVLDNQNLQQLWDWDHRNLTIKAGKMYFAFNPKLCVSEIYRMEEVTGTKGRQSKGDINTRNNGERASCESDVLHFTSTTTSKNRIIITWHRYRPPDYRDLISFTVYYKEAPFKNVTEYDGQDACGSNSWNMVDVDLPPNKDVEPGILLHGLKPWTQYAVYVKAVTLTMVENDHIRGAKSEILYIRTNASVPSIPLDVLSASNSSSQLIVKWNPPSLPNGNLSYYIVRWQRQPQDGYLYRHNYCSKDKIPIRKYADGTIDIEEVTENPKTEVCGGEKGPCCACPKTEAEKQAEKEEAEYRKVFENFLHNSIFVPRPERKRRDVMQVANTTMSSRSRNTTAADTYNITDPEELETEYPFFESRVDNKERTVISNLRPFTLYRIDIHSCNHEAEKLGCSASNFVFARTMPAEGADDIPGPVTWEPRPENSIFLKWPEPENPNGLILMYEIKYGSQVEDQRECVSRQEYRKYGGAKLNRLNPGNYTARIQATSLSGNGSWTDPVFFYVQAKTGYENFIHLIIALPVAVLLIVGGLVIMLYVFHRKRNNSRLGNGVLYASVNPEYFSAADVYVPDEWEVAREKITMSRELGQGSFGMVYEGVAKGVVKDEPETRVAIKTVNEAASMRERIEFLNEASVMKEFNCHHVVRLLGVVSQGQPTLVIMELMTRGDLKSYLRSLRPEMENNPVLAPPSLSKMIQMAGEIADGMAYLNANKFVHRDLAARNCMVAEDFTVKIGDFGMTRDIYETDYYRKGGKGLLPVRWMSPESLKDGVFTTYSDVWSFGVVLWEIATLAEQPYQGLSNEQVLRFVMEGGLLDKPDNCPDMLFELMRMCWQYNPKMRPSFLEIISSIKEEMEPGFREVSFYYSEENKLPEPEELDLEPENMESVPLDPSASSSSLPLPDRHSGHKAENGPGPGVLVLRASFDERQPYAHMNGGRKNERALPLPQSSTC

Assays:
[1] = target: Insulin-like Growth Factor Receptor (IGFR; Type I IGF receptor) (UniProt P08069); test: displacement of 125I-IGF-1 from IGFR
[2] = target: Insulin-like Growth Factor Receptor (IGFR; Type I IGF receptor) (UniProt P08069); test: IGFR competitive binding

| Substance | binding [1] | binding [2] |
| --- | --- | --- |
| single chain insulin (SCI) wild type at position B10 (His^A8, Asp^B28, Pro^B29) (from UniProt P30407 25-110) (ligand) | binds | – |
| 57mer single-chain insulin analogue (His^A8, Asp^B10, Asp^B28, Pro^B29; linker GGGPRR) (from UniProt P30407 25-110) (ligand) | – | binds |
